PubChem BioAssay AID1053209 – Peter MacCallum Cancer Centre – 2014

Test: 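Gene losses that combine with doxorubicin to kill mouse bone cancer cells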 (follow-up of hits)
System: mouse primary osteosarcoma cells
Reagent: single siRNA against mouse genes, 25 nM (text also states 40 nM)
Duration: about 120 h (48 h before drug, then 72 h with drug)
Challenge: doxorubicin 100 nM (about IC30-40), added 48 h after transfection, for 72 h
Measured: 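ATP-based luminescent viability, with or without doxorubicin, relative to non-targeting control NT1, mean of two replicates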
Scale: viability with doxorubicin, vs NT1: higher = more viable cells under doxorubicin; viability without drug, vs NT1: higher = more viable cells without drug
Active means: 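Counted as active (class LC dox) if viability falls to 0.7 of NT1 or below under doxorubicin but stays within 0.7 to 1.1 without drug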
In all, the deposit lists about 1,580 reagents; this is an unselected part. Of all reagents, 207 (13%) are marked active. 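Rows are single siRNAs; four siRNAs per gene were tested, a gene counting as confirmed only when at least two agree.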 Entries without a mark were called inactive. Not all columns of the deposit are shown.

| gene knocked down | PubChem SID | combined effect class | viability with doxorubicin, vs NT1 | viability without drug, vs NT1 |
| --- | --- | --- | --- | --- |
| Rpl6 (ribosomal protein L6) | SID152273819 | low viability with and without drug | 0.36 | 0.56 |
| Rpl6 (ribosomal protein L6) | SID152278192 | low viability with and without drug | 0.27 | 0.52 |
| Rpl6 (ribosomal protein L6) | SID152280044 | normal viability with and without drug | 1 | 0.94 |
| Rpl6 (ribosomal protein L6) | SID152342041 | low viability with and without drug | 0.26 | 0.4 |
| Vdac2 (voltage-dependent anion channel 2) | SID152279434 | high viability only without drug | 0.86 | 1.1 |
| Vdac2 (voltage-dependent anion channel 2) | SID152322527 | normal viability with and without drug | 0.72 | 0.96 |
| Vdac2 (voltage-dependent anion channel 2) | SID152324668 | normal viability with and without drug | 0.74 | 1 |
| Vdac2 (voltage-dependent anion channel 2) | SID152342014 | low viability only with doxorubicin; normal without drug (active) | 0.6 | 0.93 |
| Cadps2 (Ca2+-dependent activator protein for secretion 2) | SID152259610 | normal viability with and without drug | 0.94 | 0.97 |
| Cadps2 (Ca2+-dependent activator protein for secretion 2) | SID152262459 | normal viability with and without drug | 1.09 | 0.99 |
| Cadps2 (Ca2+-dependent activator protein for secretion 2) | SID152277889 | normal viability with and without drug | 0.94 | 0.93 |
| Cadps2 (Ca2+-dependent activator protein for secretion 2) | SID152335891 | normal viability with and without drug | 0.8 | 0.86 |
| Srsf2 (serine and arginine-rich splicing factor 2) | SID152275188 | normal viability with and without drug | 1.01 | 0.88 |
| Srsf2 (serine and arginine-rich splicing factor 2) | SID152283741 | low viability with and without drug | 0.56 | 0.7 |
| Srsf2 (serine and arginine-rich splicing factor 2) | SID152332488 | normal viability with and without drug | 1.04 | 0.82 |
| Srsf2 (serine and arginine-rich splicing factor 2) | SID152334828 | normal viability with and without drug | 0.92 | 0.87 |
| Rpl3 (ribosomal protein L3) | SID152273064 | low viability with and without drug | 0.26 | 0.32 |
| Rpl3 (ribosomal protein L3) | SID152291503 | low viability with and without drug | 0.42 | 0.55 |
| Rpl3 (ribosomal protein L3) | SID152301999 | low viability with and without drug | 0.28 | 0.34 |
| Rpl3 (ribosomal protein L3) | SID152333645 | low viability with and without drug | 0.26 | 0.48 |

Single entries from the list.
Cadps2 (Ca2+-dependent activator protein for secretion 2) [SID152259610], viability without drug, vs NT1 = 0.97
Value of Vdac2 (voltage-dependent anion channel 2) [SID152279434] in “combined effect class”: high viability only without drug
Vdac2 (voltage-dependent anion channel 2) [SID152322527], viability with doxorubicin, vs NT1 = 0.72
Result for Rpl6 (ribosomal protein L6) [SID152280044] under “viability with doxorubicin, vs NT1”: 1
Under “viability with doxorubicin, vs NT1”, Cadps2 (Ca2+-dependent activator protein for secretion 2) [SID152262459] is entered as 1.09

More records follow:
| gene knocked down | PubChem SID | combined effect class | viability with doxorubicin, vs NT1 | viability without drug, vs NT1 |
| --- | --- | --- | --- | --- |
| Ncoa6 (nuclear receptor coactivator 6) | SID152266734 | normal viability with and without drug | 1.07 | 1.04 |
| Ncoa6 (nuclear receptor coactivator 6) | SID152267885 | normal viability with and without drug | 0.81 | 1.01 |
| Ncoa6 (nuclear receptor coactivator 6) | SID152319935 | normal viability with and without drug | 0.99 | 0.96 |
| Ncoa6 (nuclear receptor coactivator 6) | SID152337593 | high viability only with doxorubicin | 1.15 | 0.97 |
| Timm22 (translocase of inner mitochondrial membrane 22) | SID152260221 | normal viability with and without drug | 0.91 | 1.04 |
| Timm22 (translocase of inner mitochondrial membrane 22) | SID152262053 | normal viability with and without drug | 0.79 | 0.93 |
| Timm22 (translocase of inner mitochondrial membrane 22) | SID152295747 | normal viability with and without drug | 0.82 | 1.04 |
| Timm22 (translocase of inner mitochondrial membrane 22) | SID152331126 | normal viability with and without drug | 0.8 | 0.96 |
| Adarb2 (adenosine deaminase, RNA-specific, B2) | SID152282282 | high viability only with doxorubicin | 1.14 | 0.98 |
| Adarb2 (adenosine deaminase, RNA-specific, B2) | SID152292098 | normal viability with and without drug | 1.04 | 1.01 |
| Adarb2 (adenosine deaminase, RNA-specific, B2) | SID152306261 | normal viability with and without drug | 1.06 | 0.98 |
| Adarb2 (adenosine deaminase, RNA-specific, B2) | SID152325891 | normal viability with and without drug | 1.04 | 1.02 |
| Psma5 (proteasome subunit alpha 5) | SID152267109 | low viability only with doxorubicin; normal without drug (active) | 0.43 | 0.84 |
| Psma5 (proteasome subunit alpha 5) | SID152290311 | low viability with and without drug | 0.16 | 0.36 |
| Psma5 (proteasome subunit alpha 5) | SID152293544 | low viability only with doxorubicin; normal without drug (active) | 0.69 | 0.78 |
| Psma5 (proteasome subunit alpha 5) | SID152304105 | low viability only with doxorubicin; normal without drug (active) | 0.59 | 0.9 |
| Polk (polymerase (DNA directed), kappa) | SID152264046 | normal viability with and without drug | 0.92 | 0.94 |
| Polk (polymerase (DNA directed), kappa) | SID152271231 | normal viability with and without drug | 1.07 | 0.99 |
| Polk (polymerase (DNA directed), kappa) | SID152289784 | normal viability with and without drug | 0.96 | 0.98 |
| Polk (polymerase (DNA directed), kappa) | SID152339182 | normal viability with and without drug | 1.06 | 1 |
